In the assay the target is pBIND-β-catenin (UniProt P35222). The assay is described as follows: two-hybrid; mammalian two-hybrid in HEK293T: pACT-JNK2, pBind-β-catenin and pG5luc co-transfected, dual luciferase read-out after 48 h; empty pACT and pBind as negative controls.

Chains of the proteins cited; added tags and fusions are not shown.
UniProt P35222: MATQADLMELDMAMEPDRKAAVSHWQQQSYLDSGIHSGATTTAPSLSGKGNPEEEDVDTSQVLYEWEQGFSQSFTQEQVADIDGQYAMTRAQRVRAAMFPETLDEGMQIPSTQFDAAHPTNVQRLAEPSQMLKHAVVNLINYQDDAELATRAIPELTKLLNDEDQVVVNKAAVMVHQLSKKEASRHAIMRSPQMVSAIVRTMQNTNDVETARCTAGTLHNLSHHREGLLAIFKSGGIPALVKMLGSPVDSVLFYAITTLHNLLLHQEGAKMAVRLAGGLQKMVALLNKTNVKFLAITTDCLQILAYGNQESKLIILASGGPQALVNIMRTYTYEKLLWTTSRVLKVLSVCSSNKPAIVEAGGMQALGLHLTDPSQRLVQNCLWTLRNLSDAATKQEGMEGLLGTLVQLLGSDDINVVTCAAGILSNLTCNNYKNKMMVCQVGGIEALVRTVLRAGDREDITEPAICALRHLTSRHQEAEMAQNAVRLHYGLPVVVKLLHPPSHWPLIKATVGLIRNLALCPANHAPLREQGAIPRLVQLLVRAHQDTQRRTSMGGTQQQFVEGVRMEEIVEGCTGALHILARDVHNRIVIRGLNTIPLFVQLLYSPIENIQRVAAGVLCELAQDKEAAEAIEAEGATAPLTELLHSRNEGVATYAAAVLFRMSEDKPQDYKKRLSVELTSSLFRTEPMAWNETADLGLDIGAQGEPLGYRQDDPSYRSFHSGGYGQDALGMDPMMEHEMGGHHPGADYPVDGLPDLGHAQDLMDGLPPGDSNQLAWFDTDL

No constants are given. Whether binding was seen depends on the method and setting. Some binding calls cover weakened binding; strength is not graded here.

Our source for the binding values is article PMC2721980.

With pACT-JNK2 (from UniProt P45984 1-424), the binding result is “binds”.
